# Data: PubChem BioAssay AID2685 (National Center for Advancing Translational Sciences (NCATS), 2010)
# This is one part of the list. These are further read-outs of the screen, such as a control signal, another cell line or another target. No call is given for them. Most of these compounds were active or inconclusive in the main read-out, so they are no random draw. Words in brackets tell the shape of the fitted curve; partial curves, single points and poor fits give uncertain potencies.
# Assay: qHTS Assay for Lipid Storage Modulators in Drosophila S3 Cells;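 as to cell number change: cells counted by Cell Tracker Red CMTPX staining in the red channel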
# Settings: BODIPY lipid droplet fluorescence, 18-24 h; for cell number change: measured here: cell count max response, cells fed with added oleic acid
# Outline: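 Drosophila S3 cells got compounds at several concentrations plus oleic acid (400 uM solution). Laser-scanning cytometry with 488 nm excitation read lipid droplets at 500-530 nm and cells at 575-640 nm. Percent activity was relative to 20 uM Triacsin C.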
# [1] = measured here: cell number channel AC50, cells fed with added oleic acid
# [2] = measured here: lipid fluorescence (Fed channel) AC50, cells fed with added oleic acid
SMILES,cell number change,AC50 [1],AC50 [2]
O=C(Nc1ccc(F)cc1F)NC1CCCc2ccccc21 (configuration not stated),8.38%,"0.461 µM [rising, single point]",
c1csc(-c2csc(-c3cccs3)n2)c1,-3.35%,,"29.1 µM [rising, single point]"
CC(C)COc1cccc(C(=O)Nc2ccc(S(=O)(=O)N3CCOCC3)cc2)c1,-23.7%,,"23.1 µM [falling, single point]"
O=C(O)c1cc(S(=O)(=O)NCCN2CCNC2=O)ccc1O,30%,"0.58 µM [rising, full curve, poor fit]",
O=C(NCc1cccnc1)c1ccc(CS(=O)(=O)Cc2ccc(Cl)cc2)o1,99%,"18.4 µM [rising, partial curve]","2.31 µM [rising, partial curve, poor fit]"
O=C(NC(=S)Nc1ccc(NC(=O)c2cccs2)cc1)c1cc2ccccc2o1,-32.3%,"29.1 µM [falling, single point]","0.461 µM [rising, full curve, poor fit]"
O=c1[nH]c(=O)n(CCc2ccc(F)cc2)c(O)c1C=NCc1ccc2c(c1)OCO2,55.6%,"2.91 µM [rising, full curve]","4.11 µM [rising, partial curve]"
Cc1nn(Cc2n[nH]c(=S)n2Cc2ccccc2)c(C)c1Cl,-10.2%,,
O=C(C1CC(=O)N(c2ccc(Br)cc2)C1)N1CCCC1 (configuration not stated),21.6%,,
COc1ccc(C(=O)NN(C)c2nc(C(F)(F)F)nc3ccccc23)cc1,20.3%,"4.61 µM [rising, full curve, poor fit]",
COc1ccccc1NC(=O)C1=C(C)Nc2nc(-c3cccs3)nn2C1c1cccc(O)c1 (configuration not stated),30.1%,"1.84 µM [rising, single point]",
O=C(O)c1ccc(NC(=S)NC(=O)c2ccc(-c3ccc(Br)cc3)o2)cc1,-5.17%,,"0.82 µM [falling, single point]"
CN(C(=O)CCn1c(=S)oc2ccccc21)C1CCCCC1,26%,,"14.6 µM [rising, partial curve]"
Cn1c(=O)c2cc(S(=O)(=O)NCCC(=O)NC3CCCCCC3)ccc2n(C)c1=O,24.8%,,"0.0206 µM [falling, full curve, poor fit]"
O=C1CC(NC23CC4CC(CC(C4)C2)C3)C(=O)N1c1ccc2c(c1)OCO2 (configuration not stated),32.3%,"5.17 µM [rising, single point]",
COc1cccc(NC(=O)CN2CCN(C(=O)c3ccco3)CC2)c1,1.52%,,
CC(=O)Nc1ccc(-c2cc(NC(C)=O)n(-c3ccccc3)n2)cc1,-0.428%,,"1.84 µM [rising, partial curve]"
NC(=O)CSc1nnc(NC(=O)c2ccc3ccccc3c2)s1,-96.5%,"25.9 µM [falling, partial curve]",
COc1ccccc1/C=C/C(=O)c1c2c(c(C)[nH]c1=O)CCCC2,-75.4%,"14.6 µM [falling, partial curve]","29.1 µM [falling, single point]"
CC(CCc1ccccc1)NC(=O)COC(=O)c1cccs1 (configuration not stated),-47.1%,,
CC1CN(C(=O)COC(=O)c2nn(-c3ccccc3)c(=O)c3ccccc23)CC(C)O1 (configuration not stated),41%,,"1.3 µM [falling, full curve]"

SMILES,cell number change,AC50 [1],AC50 [2]
COc1ccc(C(=O)NNC(=O)c2ccc(C)cc2)cc1S(=O)(=O)N1CCCC1,22.7%,,"0.164 µM [rising, full curve]"
N#Cc1c(SCc2ccccc2)sc(C(=O)c2ccccc2)c1N,72.6%,"3.66 µM [rising, partial curve]",
O=C(c1ccc(Cn2cc(Cl)cn2)o1)N1CCN(Cc2ccc3c(c2)OCO3)CC1,-46.2%,"32.6 µM [falling, partial curve, poor fit]",
NS(=O)(=O)c1ccc(NC(=O)C2(c3ccccc3)CCCC2)cc1,5.37%,,"6.51 µM [falling, partial curve, poor fit]"
Cc1ccc(S(=O)(=O)N2CCN(C(=O)c3cc(S(=O)(=O)N(C)C)ccc3N3CCCC3)CC2)cc1,-22.8%,,"29.1 µM [falling, single point]"
O=c1sc(Nc2ccccc2)nc2ccsc12,2.32%,,
C=CCc1cccc(OC)c1OCCOCCNCCO,-147%,"23.1 µM [falling, partial curve]","20.6 µM [falling, partial curve]"
CN(C)c1ncnc2c1ncn2C1OC(CO)C(O)C1O (configuration not stated),-21.9%,,"16.4 µM [falling, single point]"
O=C1c2ccc(Cl)cc2S(=O)(=O)c2cccc(C(=O)N3CCN(c4ncc(Br)cn4)CC3)c21,-18.1%,,"1.84 µM [falling, single point]"
O=C(COc1ccccc1Cl)Nn1cnnc1,6.64%,,
COc1ccc(Cn2c(=O)oc3ccc(C)cc32)cc1,1.75%,,"6.51 µM [falling, single point]"
O=C(N/N=C/c1cccnc1)c1ccc(NC(=O)c2cccc(Cl)c2)cc1,7.08%,,
CCc1cccc(C)c1NC(=O)COC(=O)c1ccc2c(c1)S(=O)(=O)c1ccccc1C2=O,,"0.731 µM [falling, single point]","0.116 µM [falling, full curve, poor fit]"
CCN1C(=O)C(CC(=O)Nc2ccc(F)cc2)N(Cc2ccc3c(c2)OCO3)C1=S (configuration not stated),-1.29%,,"7.31 µM [rising, single point]"
COc1ccccc1CNC(=O)c1ccccc1OC,,"6.51 µM [rising, single point]",
COC(=O)c1c(NC(=O)COC(=O)c2ccc(C)s2)sc2c1CCCCC2,-4.87%,,"0.13 µM [falling, full curve, poor fit]"
C=CCn1c(O)c(N=NC(=O)OCC)c2ccccc21,-1.77%,"1.46 µM [rising, full curve]","0.366 µM [rising, full curve]"
CCCc1cc(C(=O)NNC(=S)NC(C)c2ccccc2)cs1 (configuration not stated),-53.8%,"18.4 µM [falling, partial curve]","14.6 µM [falling, partial curve]"
c1ccc(SCCCCN2CCOCC2)cc1,-0.787%,,"29.1 µM [rising, partial curve, poor fit]"
CCOc1ccccc1NC(=O)CN1CCC(NC(=O)c2ccccc2C)CC1,8.46%,,"0.103 µM [rising, partial curve, poor fit]"
CCc1n[nH]c(=O)c2cc3cc(OC)ccc3n12,12.5%,,"29.1 µM [falling, single point]"

SMILES,cell number change,AC50 [1],AC50 [2]
Cn1c(=O)c2[nH]c(SCc3ccccn3)nc2n(C)c1=S,-39.2%,"18.4 µM [falling, single point]","29.1 µM [falling, single point]"
S=C(NCc1ccco1)N1CCN(Cc2ccc(Cl)cc2Cl)CC1,1.14%,,"16.4 µM [rising, single point]"
O=C(CCN1C(=O)c2ccccc2S1(=O)=O)Nc1nc2c(s1)CCCC2,-10.6%,,"0.517 µM [rising, single point]"
Cc1ccc(-n2c(Cc3ccccc3)n[nH]c2=S)cc1,-21.3%,,"0.146 µM [rising, partial curve, poor fit]"
Cc1ccc(NS(=O)(=O)c2cc(-c3cc(C)no3)ccc2C(C)C)nc1,-13.7%,,"29.1 µM [rising, single point]"
COc1cccc(NC(=O)c2nc(SC)ncc2Cl)c1,5.46%,,
O=C(NCN1CCCCC1)c1cccnc1,-22.2%,,"1.46 µM [falling, full curve]"
Cc1ccc(C)n1-c1ccsc1C(=O)CC#N,26.4%,,"0.103 µM [rising, full curve, poor fit]"
CCCn1c(N)c(C(=O)CSc2nc3ccccc3c(=O)n2Cc2ccccc2)c(=O)[nH]c1=O,8.79%,,"0.103 µM [rising, full curve, poor fit]"
COc1ccc(CCn2nc(C)c([N+](=O)[O-])c2C)cc1,20.6%,,"35.5 µM [rising, single point]"
CS(=O)(=O)N1CCN(C(=O)Nc2ccccc2)CC1,-11.4%,,"1.3 µM [falling, full curve]"
CC(C)(C)c1ccc(Oc2ccc(NC(=O)c3ccccc3C(=O)O)cn2)cc1,6.21%,,"1.84 µM [rising, single point]"
O=C1NC[C@H](c2ccccc2)N(CC2CCCCC2)C1=O,20.2%,,
O=C(N/N=C/c1ccc([N+](=O)[O-])cc1)c1cc2ccccc2o1,-0.961%,"0.00461 µM [rising, full curve, poor fit]","0.461 µM [rising, full curve, poor fit]"
CN(C)CCOc1ccc(Cl)cc1C(C)(C)C,-40%,"29.1 µM [falling, single point]","29.1 µM [falling, single point]"
COc1ccc(-c2cccc(C(=O)N3CCOCC3)c2)cc1,20.1%,,"29.1 µM [rising, single point]"
O=C(CC1C(=O)NCCN1C(=O)c1ccccc1)Nc1cc(Cl)ccc1Cl (configuration not stated),,"2.91 µM [rising, partial curve]","6.51 µM [rising, single point]"
CCOC(=O)c1c(C2CCN(C(=O)OCC)CC2)nc2ccccn12,-9.35%,,"29.1 µM [falling, single point]"
O=C(Nc1ccccc1C(F)(F)F)NC1CCCCCCC1,,"6.51 µM [rising, single point]","6.51 µM [rising, single point]"

# Four compounds drawn at random from the list so far:
SMILES,cell number change,AC50 [1],AC50 [2]
O=C(N/N=C/c1ccc([N+](=O)[O-])cc1)c1cc2ccccc2o1,-0.961%,"0.00461 µM [rising, full curve, poor fit]","0.461 µM [rising, full curve, poor fit]"
CCOC(=O)c1c(C2CCN(C(=O)OCC)CC2)nc2ccccn12,-9.35%,,"29.1 µM [falling, single point]"
O=C(NCN1CCCCC1)c1cccnc1,-22.2%,,"1.46 µM [falling, full curve]"
CCCn1c(N)c(C(=O)CSc2nc3ccccc3c(=O)n2Cc2ccccc2)c(=O)[nH]c1=O,8.79%,,"0.103 µM [rising, full curve, poor fit]"
